PubChem BioAssay AID720505 | Drosophila RNAi Screening Center | 2013
Test: 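Fly regulators or components of the CRAC channel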 (primary screen). Cells: Drosophila S2R+ cells. Reagents: long dsRNA against Drosophila genes. Conditions: thapsigargin (2 µM) in calcium-free buffer to empty internal stores, then 2 mM calcium added back. Detection: 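Fluo-4 signal in 384-well plates read on a FLIPR after thapsigargin (2 µM, calcium-free) store depletion and 2 mM calcium add-back; unnormalised mean endpoint per well; screen run twice, selected wells retested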. Direction: calcium signal: higher = more calcium entry after store depletion. Rule for the call: 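About 1500 genes called as lowering calcium entry, by varying amounts, judged against per-plate control wells with STIM1 as positive and Rho1 as negative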. Calls: active = called as lowering calcium entry; inactive = not called.
The deposit covers about 20,000 reagents; shown is a random part of those that have a named target and a result. Over the whole deposit, about 2,100 (10%) were called active. 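Raw plate signals without normalisation; calls rest on control-based scores that were not deposited; replicate 2 separates called from uncalled poorly.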 Unmarked entries are inactive. Not given: the amount of reagent, the time to read-out.

Depletion of CG9003 (GeneID 36244) [SID104187109] came out at: calcium signal, replicate 1 = 114; calcium signal, replicate 2 = 150. Knock-down of CG11060 (GeneID 35641) [SID104185821] gave: calcium signal, replicate 1 = 236; calcium signal, replicate 2 = 85.7. Silencing of TpnC73F (GeneID 39916) [SID104191099] resulted in: calcium signal, replicate 1 = 61.7; calcium signal, replicate 2 = 106. For CG10171 (GeneID 39501) [SID104189503], the values are calcium signal, replicate 1 = 66.1 (active); calcium signal, replicate 2 = 97.1. After knock-down of CG10513 (GeneID 43051) [SID104194040] the results were calcium signal, replicate 1 = 106; calcium signal, replicate 2 = 101. With knock-down of TTLL3B (GeneID 33946) [SID104181925] the results were calcium signal, replicate 1 = 181; calcium signal, replicate 2 = 145.

Depletion of CG4069 (GeneID 39437) [SID104190188] resulted in: calcium signal, replicate 1 = 82.1; calcium signal, replicate 2 = 124. Depletion of CG17145 (GeneID 40215) [SID104190039] came out at: calcium signal, replicate 1 = 68.5 (active); calcium signal, replicate 2 = 114. Knock-down of CG10324 (GeneID 42028) [SID104194022] gave: calcium signal, replicate 1 = 123; calcium signal, replicate 2 = 138.

Not a retest: 2 of the entries above.
TpnC73F (GeneID 39916) [SID104191099] → calcium signal, replicate 1 = 61.7; calcium signal, replicate 2 = 106
CG10171 (GeneID 39501) [SID104189503] → calcium signal, replicate 1 = 66.1 (active); calcium signal, replicate 2 = 97.1

The results go on.
Knock-down of CG6329 (GeneID 36529) [SID104186768] resulted in: calcium signal, replicate 1 = 211; calcium signal, replicate 2 = 190. Depletion of Gr98a (GeneID 43305) [SID104194511] came out at: calcium signal, replicate 1 = 113; calcium signal, replicate 2 = 190. With knock-down of CG13198 (GeneID 36245) [SID104186115], the screen gave calcium signal, replicate 1 = 98.1; calcium signal, replicate 2 = 164. Against Sse (GeneID 38640) [SID104189538], the values are calcium signal, replicate 1 = 57.1 (active); calcium signal, replicate 2 = 72.9. CG6333 (GeneID 39953) [SID104190418] showed calcium signal, replicate 1 = 101; calcium signal, replicate 2 = 143. After knock-down of Lcp2 (GeneID 35818) [SID104187248] the results were calcium signal, replicate 1 = 129; calcium signal, replicate 2 = 168.

Against Aasdh (GeneID 34175) [SID104183259], the entry reads calcium signal, replicate 1 = 173; calcium signal, replicate 2 = 129. CG9444 (GeneID 41175) [SID104196285] showed calcium signal, replicate 1 = 159; calcium signal, replicate 2 = 105. With knock-down of ec (GeneID 31339) [SID104198450] the results were calcium signal, replicate 1 = 146; calcium signal, replicate 2 = 81.4. For t-Grip84 (GeneID 38852) [SID104190696], the entry reads calcium signal, replicate 1 = 97.2; calcium signal, replicate 2 = 81.1. After knock-down of CG43341 (GeneID 12798088) [SID104184847], the record shows calcium signal, replicate 1 = 97; calcium signal, replicate 2 = 94.2. Silencing of M7BP (GeneID 35698) [SID104184845] resulted in: calcium signal, replicate 1 = 90.8; calcium signal, replicate 2 = 117.

Silencing of M7BP (GeneID 35698) [SID104184846] came out at: calcium signal, replicate 1 = 106; calcium signal, replicate 2 = 91.2. For M7BP (GeneID 35698) [SID104185724], the entry reads calcium signal, replicate 1 = 142; calcium signal, replicate 2 = 76.9. M7BP (GeneID 35698) [SID104186493] scored calcium signal, replicate 1 = 119; calcium signal, replicate 2 = 126. With knock-down of M7BP (GeneID 35698) [SID104186608], the screen gave calcium signal, replicate 1 = 135; calcium signal, replicate 2 = 202. CG13926 (GeneID 38192) [SID104188187] gave calcium signal, replicate 1 = 97.3; calcium signal, replicate 2 = 150. Knock-down of dos (GeneID 38321) [SID104188505] resulted in: calcium signal, replicate 1 = 54.1; calcium signal, replicate 2 = 117.

Silencing of dos (GeneID 38321) [SID104202642] resulted in: calcium signal, replicate 1 = 115; calcium signal, replicate 2 = 113.
